According to PubChem BioAssay AID687031 (Broad Institute, 2013):
In all, about 1,400 compounds went through this assay and about 50 (4%) were called active.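 How the source made its calls: active means fitted curve reaches 30% CPE protection at or below the top valid dose, with every test run called active; inconclusive means test runs disagree, some active and some not; inactive means every test run inactive, including effects in the wrong direction.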 This is one part of the list. Results with a measured potency or affinity are listed apart.

Test: antiviral rescue of DENV2-infected BHK-21 cells – cell-based, ATP luminescence, cherry-pick, dose response (AID 687031);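 further: 0% = infected DMSO wells and 100% = uninfected cell wells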
Details: BHK-21 DENV2 CPE protection, 5 d; at 19.5 µM (top of the series) unless noted

CPE protection (higher = active), inactive:
COc1ccc(S(=O)(=O)Nc2cc3c4c(c2)CCN4C(=O)CC3)cc1 14.6%
OC(COC(c1ccc(F)cc1)c1ccc(F)cc1)CN1CCCC1 (stereo not drawn) 2.8%
O=C(c1ccc(F)cc1)N1CCC(C(=O)N2CCCc3ccccc32)CC1 18.1%
CCOC(=O)C1CCCN(c2c(N3CCOCC3)c(=O)c2=O)C1 (stereo not drawn) -3.97%
Cc1ccc(NC(=O)c2nc[nH]c2C(=O)N[C@@H](C)C(=O)OC(C)(C)C)cc1 2.06%
C/C=C/c1ccc([C@H]2[C@@H](CO)N3CCCCN(S(=O)(=O)c4ccccc4)C[C@@H]23)cc1 -29.9%
C[C@H](CCC(=O)O)[C@H]1CC[C@H]2[C@@H]3CC[C@@H]4C[C@H](O)CC[C@]4(C)[C@H]3C[C@H](O)[C@]12C -3.87%
COc1ccc([C@H]2C[C@@H](n3cc(C4CC4)nn3)[C@H](O)CN2Cc2cccs2)cc1 0.924% [at 10 µM]
CCN(CC)C(=O)C1=C(C)N(CCCN2CCCC2=O)C(=O)C(CC(=O)NCC2CCCCC2)C1 (stereo not drawn) 15.6%
Clc1cccc(C2=NOC(c3nnc(-c4ccccc4)o3)C2)c1 (stereo not drawn) 5.72%
CCc1nc2ccc(C(=O)N(CC)CCN(C)C)cn2c1N(C)C(=O)c1cccc(OC)c1 -23.3%
Cc1cccc(N=[N+]([O-])c2cccc(C)n2)n1 -7.07%
N#C[C@@H]1[C@@H](c2ccc(-c3cccc(F)c3)cc2)[C@H](CO)N1c1nc(-c2ccccc2)cs1 -8.78%
CCCCCC(=O)NC1CCCCN(C)C1=O (stereo not drawn) 19.9%
COc1ccc(S(=O)(=O)N2CCCCCC2)cc1NC(=O)Cc1cccc(C(F)(F)F)c1 -4.8%
Nc1nc2ccccc2n1Cc1ccc(Cl)c(Cl)c1 -19.4%
Cc1ccc(SC[C@H](Cc2ccccc2)N2CC[C@@H](C)CCC2=O)cc1 14.7%
Cc1cccc(CN2CCN(C(=O)c3cccc4ccccc34)CC2)c1 -3.17%
COc1ccc(CNC(=O)C2CC(c3ccc(C(F)(F)F)cc3)=NO2)cc1 (stereo not drawn) -25.2%
Cc1noc(C)c1NC(=O)Nc1ccc2c(c1)C(=O)N([C@@H](C)CO)C[C@H](C)[C@@H](CN(C)C(=O)CCCN(C)C)OCCCC[C@@H](C)O2 15.7%
CC(C)(NC(=O)c1ccccc1)c1nc2ccccc2s1 4.35%
Cc1cc2oc3ccc(NCCCN4CCOCC4)cc3c(=O)c2cc1C 16.8%
Cc1c(CCC(=O)NCCCN2CCCC2=O)c(=O)oc2cc(O)ccc12 -6.14%

Some of these compounds in order of heavy-atom count, descending:
CPE protection (higher = active), inactive:
CCc1nc2ccc(C(=O)N(CC)CCN(C)C)cn2c1N(C)C(=O)c1cccc(OC)c1 -23.3%
COc1ccc(S(=O)(=O)N2CCCCCC2)cc1NC(=O)Cc1cccc(C(F)(F)F)c1 -4.8%
COc1ccc(S(=O)(=O)Nc2cc3c4c(c2)CCN4C(=O)CC3)cc1 14.6%
